Record: PubChem BioAssay AID1259308 (NCATS, 2017)

- Aim: 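Candidate targets for better recombinant protein yield in mammalian cells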 (primary screen)
- Cells: human HEK293 embryonic kidney cells stably expressing firefly luciferase (HEK-CMV-Luc2-Hygro)
- Reagent: single siRNA against human genes, 0.8 pmol siRNA per well
- Duration: 72 h
- Detection: 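Reporter luminescence and viable-cell signal on separate replicate plates, given as percent of non-targeting control and median/MAD z-scores, plus per-cell luciferase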
- Scale: total luciferase, z-score and total luciferase, % of control: higher = more reporter protein produced
- Rule for the call: 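An siRNA counts as active if its total luciferase robust z-score exceeds 3; genes with two or more such siRNAs out of three were retested with fresh siRNAs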
- Meaning of the calls: active = raised luciferase; inactive = no rise
The deposit covers about 59,000 reagents; shown is a random part of them. About 1,510 of all reagents (2.6%) were called active. 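Calls use total luciferase alone and ignore viability, so some active siRNAs may act by altering cell number.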 The numbers tell different reagents against one gene apart. Not all columns of the deposit are shown. Reagent sequences are not shown.

PAX5 #1
- total luciferase, z-score: 0.0528
- total luciferase, % of control: 82.9
- Outcome: inactive

PAX5 #2
- total luciferase, z-score: 0.0545
- total luciferase, % of control: 83
- Outcome: inactive

PAX5 #3
- total luciferase, z-score: -0.862
- total luciferase, % of control: 64.7
- Outcome: inactive

SNX20 #1
- total luciferase, z-score: -2.78
- total luciferase, % of control: 26.6
- Outcome: inactive

SNX20 #2
- total luciferase, z-score: 0.577
- total luciferase, % of control: 93.4
- Outcome: inactive

SNX20 #3
- total luciferase, z-score: -0.995
- total luciferase, % of control: 62.1
- Outcome: inactive

YY1 #1
- total luciferase, z-score: 2.58
- total luciferase, % of control: 133
- Outcome: inactive

YY1 #2
- total luciferase, z-score: 1.02
- total luciferase, % of control: 102
- Outcome: inactive

YY1 #3
- total luciferase, z-score: 0.116
- total luciferase, % of control: 84.2
- Outcome: inactive

YJU2B #1
- total luciferase, z-score: -0.56
- total luciferase, % of control: 70.8
- Outcome: inactive

YJU2B #2
- total luciferase, z-score: 0.654
- total luciferase, % of control: 94.9
- Outcome: inactive

YJU2B #3
- total luciferase, z-score: 0.0427
- total luciferase, % of control: 82.7
- Outcome: inactive

HSPB8 #1
- total luciferase, z-score: 0.85
- total luciferase, % of control: 98.8
- Outcome: inactive

HSPB8 #2
- total luciferase, z-score: 0.349
- total luciferase, % of control: 88.8
- Outcome: inactive

HSPB8 #3
- total luciferase, z-score: 0.279
- total luciferase, % of control: 87.4
- Outcome: inactive

GJA1 #1
- total luciferase, z-score: -1.12
- total luciferase, % of control: 59.6
- Outcome: inactive

GJA1 #2
- total luciferase, z-score: 0.968
- total luciferase, % of control: 101
- Outcome: inactive

GJA1 #3
- total luciferase, z-score: 1.8
- total luciferase, % of control: 118
- Outcome: inactive

ETV6 #1
- total luciferase, z-score: -2.03
- total luciferase, % of control: 41.6
- Outcome: inactive

ETV6 #2
- total luciferase, z-score: 0.165
- total luciferase, % of control: 85.2
- Outcome: inactive

ETV6 #3
- total luciferase, z-score: -0.0168
- total luciferase, % of control: 81.6
- Outcome: inactive

MFSD6 #1
- total luciferase, z-score: 0.0545
- total luciferase, % of control: 83
- Outcome: inactive

MFSD6 #2
- total luciferase, z-score: 1.9
- total luciferase, % of control: 120
- Outcome: inactive

MFSD6 #3
- total luciferase, z-score: -0.205
- total luciferase, % of control: 77.8
- Outcome: inactive

KCNF1 #1
- total luciferase, z-score: -0.394
- total luciferase, % of control: 74.1
- Outcome: inactive

KCNF1 #2
- total luciferase, z-score: -2.92
- total luciferase, % of control: 23.8
- Outcome: inactive

KCNF1 #3
- total luciferase, z-score: 0.198
- total luciferase, % of control: 85.8
- Outcome: inactive

CIRSR #1
- total luciferase, z-score: -0.152
- total luciferase, % of control: 78.9
- Outcome: inactive

CIRSR #2
- total luciferase, z-score: -0.0621
- total luciferase, % of control: 80.7
- Outcome: inactive

CIRSR #3
- total luciferase, z-score: -0.173
- total luciferase, % of control: 78.5
- Outcome: inactive

PPP1R15A #1
- total luciferase, z-score: 0.314
- total luciferase, % of control: 88.1
- Outcome: inactive

PPP1R15A #2
- total luciferase, z-score: -0.159
- total luciferase, % of control: 78.7
- Outcome: inactive

PPP1R15A #3
- total luciferase, z-score: -0.0549
- total luciferase, % of control: 80.8
- Outcome: inactive

Already shown: 3 of the entries above.
KCNF1 #1
- total luciferase, z-score: -0.394
- total luciferase, % of control: 74.1
- Outcome: inactive

KCNF1 #2
- total luciferase, z-score: -2.92
- total luciferase, % of control: 23.8
- Outcome: inactive

KCNF1 #3
- total luciferase, z-score: 0.198
- total luciferase, % of control: 85.8
- Outcome: inactive
